Results published in PMC7927628.
These are yes or no findings as the source states them, for the method shown. Binding seen in cells or lysates may run through a third protein. A yes stands for co-enrichment or nearness to the bait. Other partners may have been found.

Protein sequences, listed by entry. Tags and fused reporters are not part of them.
UniProt O75901: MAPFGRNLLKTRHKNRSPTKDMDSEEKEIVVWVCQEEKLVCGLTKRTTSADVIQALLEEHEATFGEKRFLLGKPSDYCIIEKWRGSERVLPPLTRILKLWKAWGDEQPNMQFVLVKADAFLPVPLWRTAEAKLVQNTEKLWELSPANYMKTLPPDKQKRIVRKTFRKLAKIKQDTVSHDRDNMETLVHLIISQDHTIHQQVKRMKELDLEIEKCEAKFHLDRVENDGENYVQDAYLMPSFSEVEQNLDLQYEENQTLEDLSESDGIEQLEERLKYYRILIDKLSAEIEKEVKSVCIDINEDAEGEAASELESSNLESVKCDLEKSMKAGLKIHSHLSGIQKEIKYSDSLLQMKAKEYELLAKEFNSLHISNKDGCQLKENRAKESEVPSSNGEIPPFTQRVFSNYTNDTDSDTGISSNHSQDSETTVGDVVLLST

Molecular target: T1, TGF‐β‐activated kinase 1 (TAK1) (UniProt O43318)
T1 sequence: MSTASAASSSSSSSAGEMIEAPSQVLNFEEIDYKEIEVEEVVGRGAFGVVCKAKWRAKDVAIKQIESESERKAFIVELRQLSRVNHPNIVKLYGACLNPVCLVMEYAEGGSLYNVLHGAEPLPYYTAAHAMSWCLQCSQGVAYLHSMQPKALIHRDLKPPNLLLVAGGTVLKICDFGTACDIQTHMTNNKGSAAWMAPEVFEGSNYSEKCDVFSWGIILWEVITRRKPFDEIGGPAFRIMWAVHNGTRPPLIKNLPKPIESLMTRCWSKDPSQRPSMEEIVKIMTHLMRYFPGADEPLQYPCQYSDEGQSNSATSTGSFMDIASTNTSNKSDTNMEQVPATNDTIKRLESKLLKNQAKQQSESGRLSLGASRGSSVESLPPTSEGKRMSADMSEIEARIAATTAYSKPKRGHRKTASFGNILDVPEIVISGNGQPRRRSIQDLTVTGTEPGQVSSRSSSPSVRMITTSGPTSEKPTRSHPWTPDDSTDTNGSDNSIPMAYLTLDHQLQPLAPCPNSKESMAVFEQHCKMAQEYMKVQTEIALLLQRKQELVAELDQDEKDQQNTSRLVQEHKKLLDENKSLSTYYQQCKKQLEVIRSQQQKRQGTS
Experiment: affinity purification with mass spectrometry; co-immunoprecipitation with anti-TAK1 antibody, then mass spectrometry of phosphorylated proteins in the complex; cells not told in the main text

binding: binds
Substance: Ras association domain family 9 (RASSF9), phosphorylated at S284 (from UniProt O75901 1-435)
